# Reference: PubChem BioAssay AID540276 (National Center for Advancing Translational Sciences (NCATS), 2011)
# Values joined by “and” are separate entries in the source; they are usually repeats but may differ in a detail not shown here. Equal entries are not always repeated. In all, about 300,000 compounds went through this assay and about 5,400 (1.8%) were called active. The inconclusive results got no clear call from the source; some entries with a clear call stand among them for comparison. Calls follow the shape of the full dose curve; tested in HEK293 cells. A potency beside an inconclusive call is a rough fit, not a confirmed value.
# Experiment: qHTS for inhibitors of binding or entry into cells for Marburg Virus
# Conditions: Marburg virus pseudotyped entry inhibition, cell reporter; activity change, negative = inhibition: at 37.8 µM (top of the series) unless noted
# % is scaled to controls: 0 for no effect and ±100 for the full control effect; potency is read from the fitted curve at half-maximal effect.
SMILES,"activity change, negative = inhibition",Potency
Cc1ccc2c(c1)N(CCCC(=O)NCCCN1CCCC1=O)C(=O)CO2,inactive: 16.9%,
O=c1[nH]c(O)c(N=Nc2ccc3c(c2)OCCO3)c(=O)[nH]1,,"inconclusive: 1.26 µM [inhibitor, full curve, poor fit]"
CC(C)(CC(=O)O)CC(=O)N1CCCN(c2nc3ccc(Cl)cc3s2)CC1,inactive: -9.6%,
O=C(Nc1nnc(Cc2ccc(Cl)cc2)s1)C1CCCO1 (centres undefined),,"inconclusive: 35.5 µM [inhibitor, single point]"
O=S(=O)(c1ccc(-c2nnco2)cc1)N1CCCCC1,inactive: 7.06% [at 46.1 µM],
CCOc1cc(NC(=S)Nc2ccccc2)c(OCC)cc1NC(=O)c1ccccc1,,"inconclusive: 29.1 µM [inhibitor, single point]"
COc1cc(-c2ccccc2)nc(N)n1,,"inconclusive: 8.2 µM [activator, partial curve]"
O=C(CN1CC[n+]2c(-c3cccs3)csc21)c1ccc(Br)cc1,,"inactive and inconclusive: 631 nM [inhibitor, full curve, poor fit]"
COc1ccccc1N(CC(=O)Nc1ccc2c(c1)OCO2)S(=O)(=O)c1ccccc1,,"inconclusive: 0.112 µM [inhibitor, full curve, poor fit]"
Cc1ccc2c(c1)c(=O)c(C(=O)c1ccc3c(c1)OCO3)cn2Cc1ccc(Cl)cc1,,"inconclusive: 11.2 µM [inhibitor, partial curve, poor fit]"
COc1cc(NC(=O)CCc2c(C)nc3cc(-c4ccccc4)nn3c2C)cc(OC)c1OC,inactive: -11.8% [at 46.1 µM],
CCOc1ccc(CN(C(=O)c2cc(=O)c3cc(C)cc(C)c3o2)C2CCS(=O)(=O)C2)cc1 (centres undefined),,"inconclusive: 35.5 µM [inhibitor, single point]"
Cc1nn(C(C)C(=O)N2CCN(c3ccc(Cl)cc3)CC2)c(=O)c2cc3occc3n12 (centres undefined),,"inconclusive: 22.4 µM [inhibitor, single point]"
CC/C(=N\NC(=O)c1ccccc1)c1c(O)n(Cc2ccccc2)c(=O)[nH]c1=O,,"inconclusive: 1.78 µM [activator, partial curve, poor fit]"
COc1cc(/C=C2/C(=O)CNC2=O)ccc1O,inactive: 3.67%,
CCCn1c(SCC(=O)NC(C)C23CC4CC(CC(C4)C2)C3)n[nH]c1=O (centres undefined),inactive: -1.88%,
COc1ccc(NC(=S)NCc2ccc(S(N)(=O)=O)cc2)c(OC)c1,,"inconclusive: 1.41 µM [inhibitor, partial curve, poor fit]"
CCOC(=O)Cc1csc(NC(=O)CSc2nnc(C3CC3)n2C)n1,inactive: -0.813%,
CC(CC(=O)Nc1ccc2c(c1)OCCO2)c1ccccc1 (centres undefined),,"inconclusive: 7.08 µM [activator, partial curve, poor fit]"
COc1cc([N+](=O)[O-])ccc1NC(=O)CSc1nccn1C,,"inconclusive: 2.82 µM [activator, full curve]"
COc1ccc(C(=O)Oc2ccc3ccc(=O)oc3c2)cc1OC,inactive: -6.74% [at 46.1 µM],
COc1ccc(-n2c(N)cc(=O)nc2SCC(=O)NC2CCCCC2)cc1,,"inconclusive: 0.794 µM [inhibitor, partial curve, poor fit]"

# A draw from above in order of SMILES length, descending:
SMILES,"activity change, negative = inhibition",Potency
Cc1ccc2c(c1)c(=O)c(C(=O)c1ccc3c(c1)OCO3)cn2Cc1ccc(Cl)cc1,,"inconclusive: 11.2 µM [inhibitor, partial curve, poor fit]"
CCCn1c(SCC(=O)NC(C)C23CC4CC(CC(C4)C2)C3)n[nH]c1=O (centres undefined),inactive: -1.88%,
COc1cc([N+](=O)[O-])ccc1NC(=O)CSc1nccn1C,,"inconclusive: 2.82 µM [activator, full curve]"

# Next part

SMILES,"activity change, negative = inhibition",Potency
CCN1CCN(Cc2c(C)[nH]c3ccc(C(=O)OC)cc3c2=O)CC1,,"inconclusive: 2.59 µM [inhibitor, single point]"
O=C(Cn1nnc(-c2ccccc2)n1)N/N=C/c1ccc(-c2ccc(Cl)cc2)o1,,"inconclusive: 3.16 µM [inhibitor, single point]"
COc1ccc(-c2noc(CCCOc3ccc(Cl)cc3Cl)n2)cc1,inactive: -4.78%,
O=C(NC(Cc1c[nH]c2ccccc12)C(=O)Nc1ccc(OC(F)(F)F)cc1)c1cccs1 (centres undefined),,active: 2.59 µM
CCCCCCOc1ccc(OC(=O)c2ccncc2)cc1,,"inconclusive: 3.98 µM [inhibitor, partial curve, poor fit]"
Cc1ccc(-c2cc(=O)c3ccccc3[nH]2)cc1,,"inconclusive: 25.9 µM [activator, single point]"
N#Cc1ccc(S(=O)(=O)N2CCCN(c3nc4ccc(Cl)cc4s3)CC2)cc1,,"inconclusive: 5.62 µM [inhibitor, single point]"
O=C(NCCN1CCCCC1)c1ccc(Oc2cc(Cl)cc(Cl)c2)o1,,"inconclusive: 35.5 µM [inhibitor, single point]"
O=C(/C=C/Nc1ccccc1Br)c1ccccn1,,"inconclusive: 1.26 µM [inhibitor, full curve, poor fit]"
CCOC(=O)C1CCN(C(=O)c2sc3ncnc(N4CCC(C)CC4)c3c2C)CC1,,"inconclusive: 0.92 µM [inhibitor, full curve, poor fit]"
CCOC(=O)C1=C(C)NC(=O)NC1c1ccc(OC(=O)c2ccco2)cc1 (centres undefined),inactive: 2.9%,
NC(=O)c1c(NC(=O)CSc2nnc(-c3ccco3)n2-c2ccccc2)sc2c1CCC2,,inactive
CCOc1ccccc1N1CCN(c2nc(N)c(C#N)c(CC#N)c2C#N)CC1,,"inconclusive: 35.5 µM [inhibitor, single point]"
O=C1NC(=O)[C@]2(Cc3ccccc3N3CCN(c4ccccc4)CC32)C(=O)N1Cc1ccccc1 (some centres undefined),inactive: 5.67%,
CCC(C)Nc1nc(N)c([N+](=O)[O-])c(N2CCCCCC2)n1 (centres undefined),,"inconclusive: 7.08 µM [inhibitor, partial curve, poor fit]"
CCCn1c(N2CCN(S(=O)(=O)Cc3ccccc3)CC2)nc2ccccc21,,"inconclusive: 16.4 µM [inhibitor, single point]"
CCc1ccc(-n2c(=O)c3c4c(sc3n(CC(=O)N3CCC(C)CC3)c2=O)CCC4)cc1,inactive: 16.4% [at 46.1 µM],
O=C(Nc1ccc(N2CCOCC2)cc1)C1(c2ccc(Cl)cc2)CCC1,,"inconclusive: 0.562 µM [activator, full curve, poor fit]"
CC(=O)Nc1ccc(S(=O)(=O)NCCc2ccc(F)cc2)cc1,inactive: 17.2%,
CCc1cccc(C)c1NC(=O)COC(=O)Cn1c(C)csc1=O,inactive: 4.92% [at 46.1 µM],
COc1cccc(N2CCN(C(=O)CCS(=O)(=O)c3ccc4c(c3)oc(=O)n4C)CC2)c1,,inactive
COc1ccc(/C=N\NC(=O)c2c(C)nc3ccc(Br)cn23)cc1,inactive: -9.34%,
